In experiment [1] the target is presenilin 2 (PS2) (human (endogenous in SKBR3)) (UniProt P49810). Briefly: FRET or BRET; acceptor-bleaching FRET on fixed cells (SKBR3, SK-HN, SK-Vc) stained with primary antibodies and fluorescent secondary antibodies; with or without EGF (100 ng/mL, 20 or 60 min) or NRG1.
The target in experiment [2] is human epidermal growth factor receptor 2 (HER2) (human (endogenous in SKBR3 and in patients' tumour tissue)) (UniProt P04626). Described as above.
In the next experiment the target is AmCyan-HER2 (human) (UniProt P04626). Briefly: FRET or BRET; live-cell FLIM-FRET in transfected SKBR3 cells; lifetime of the donor AmCyan by time-correlated single-photon counting; control and EGF-treated cells, 0, 5, 20, 60, 130 min. In general terms: In BRET a luciferase serves as donor, and the signal depends on an acceptor being close.
A further experiment deals with HER2-AmCyan (human) (UniProt P04626). The experiment is described as above.
Experiment [3] addresses human epidermal growth factor receptor 2 (HER2) (human (endogenous in SKBR3 and in patients' tumour tissue)) (UniProt P04626). Briefly: FRET or BRET; acceptor-bleaching FRET on sections of HER2+ breast tumours of trastuzumab-treated patients (responders n = 41, non-responders n = 7), stained with primary antibodies and fluorescent secondary antibodies; Leica TCS SP5.
The target of experiment [4] is HER1 (EGFR) (human (endogenous in SKBR3)) (UniProt P00533). In words: FRET or BRET; acceptor-bleaching FRET on fixed cells (SKBR3, SK-HN, SK-Vc) stained with primary antibodies and fluorescent secondary antibodies; with or without EGF (100 ng/mL, 20 or 60 min) or NRG1.
Experiment [5] deals with human epidermal growth factor receptor 2 (HER2) (human (endogenous in SKBR3 and in patients' tumour tissue)) (UniProt P04626). In words: FRET or BRET; FRET on SKBR3-derived cells transiently transfected with the HER1 KO (CRISPR) plasmid, with or without EGF (100 ng/mL, 20 min).
For experiment [6] the target is unchanged. In words: co-IP; 500 ug of cell lysate with primary antibody or normal rabbit IgG, protein G agarose, four PBS washes, western blot; SKBR3 treated with EGF (100 ng/mL; 0, 20, 50 min), and SK-Vc, SK-HN, SK-Sc, SK-Si lysates precipitated for HNMT. (In western blotting, separated proteins are transferred to a membrane and probed.)

By UniProt entry, the sequences of proteins in these tests, tags left out.
UniProt P50135: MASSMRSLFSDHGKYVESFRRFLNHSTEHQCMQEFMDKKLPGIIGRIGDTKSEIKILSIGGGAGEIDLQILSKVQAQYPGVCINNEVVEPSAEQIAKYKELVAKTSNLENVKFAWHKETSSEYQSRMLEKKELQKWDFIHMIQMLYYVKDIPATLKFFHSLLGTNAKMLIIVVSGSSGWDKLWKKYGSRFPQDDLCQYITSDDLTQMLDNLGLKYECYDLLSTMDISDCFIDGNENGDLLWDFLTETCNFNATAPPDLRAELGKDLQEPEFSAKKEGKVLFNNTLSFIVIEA

Results are given in words; binding and its absence hold for the method and conditions named. In cells and extracts the contact can be indirect. Some binding calls cover weakened binding; strength is not graded here.

Take “HNMT overexpressed in SKBR3 cells (SK-HN) (from UniProt P50135 1-292) (enzyme)”: the binding entry in experiment [1] and in experiment [2] was “binds” throughout.
“HNMT-ZsYellow (from UniProt P50135 1-292) (enzyme)”: the binding entry with AmCyan-HER2 (human) and in the experiment with HER2-AmCyan (human) was “binds” each time.
As to “histamine N-methyltransferase (HNMT) (from UniProt P50135 1-292) (enzyme)”, the binding result is listed as “binds” in experiment [3]; “binds weakly” in experiment [4]; “binds” in experiment [2]; “no binding (condition: HER1 knocked out (CRISPR))” in experiment [5]; “binds” in experiment [6].
Regarding “human epidermal growth factor receptor 2 (HER2) (from UniProt P04626 23-1255)”, the binding entry in experiment [1] was “binds”.

Source of the values: article PMC11720525.
